From the supplement of paper PMC12067093, “Discovery and optimisation of a covalent ligand for TRIM25 and its application to targeted protein ubiquitination” (Chemical Science, 2025)
The list shows a part of the results.

By UniProt entry, the sequences of proteins in these tests, tags left out. Where a name states a change or a piece, a line headed by the entry shows the natural chain unless it says otherwise.
UniProt Q8WUM4: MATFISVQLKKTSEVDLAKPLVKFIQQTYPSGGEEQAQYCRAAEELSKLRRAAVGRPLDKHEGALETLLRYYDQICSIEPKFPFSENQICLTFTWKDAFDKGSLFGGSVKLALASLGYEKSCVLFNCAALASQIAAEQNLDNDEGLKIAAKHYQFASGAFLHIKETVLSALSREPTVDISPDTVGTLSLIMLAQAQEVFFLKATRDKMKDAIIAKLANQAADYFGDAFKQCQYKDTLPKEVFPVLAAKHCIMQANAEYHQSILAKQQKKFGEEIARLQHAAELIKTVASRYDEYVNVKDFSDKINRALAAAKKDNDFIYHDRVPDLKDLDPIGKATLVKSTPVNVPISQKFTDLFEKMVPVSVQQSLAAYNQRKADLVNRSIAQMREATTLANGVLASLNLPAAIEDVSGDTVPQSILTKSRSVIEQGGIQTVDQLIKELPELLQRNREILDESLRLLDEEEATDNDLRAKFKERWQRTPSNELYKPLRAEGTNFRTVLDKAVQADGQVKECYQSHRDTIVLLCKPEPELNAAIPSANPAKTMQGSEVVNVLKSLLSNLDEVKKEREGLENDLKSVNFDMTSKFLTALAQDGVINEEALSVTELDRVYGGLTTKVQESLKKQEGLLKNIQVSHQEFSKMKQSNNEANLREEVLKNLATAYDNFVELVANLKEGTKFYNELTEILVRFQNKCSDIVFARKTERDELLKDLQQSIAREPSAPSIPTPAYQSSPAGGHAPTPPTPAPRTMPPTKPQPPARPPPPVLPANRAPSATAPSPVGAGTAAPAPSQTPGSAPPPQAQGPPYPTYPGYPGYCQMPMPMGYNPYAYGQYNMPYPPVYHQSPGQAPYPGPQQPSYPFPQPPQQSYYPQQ
UniProt P09874, whole entry, looked up: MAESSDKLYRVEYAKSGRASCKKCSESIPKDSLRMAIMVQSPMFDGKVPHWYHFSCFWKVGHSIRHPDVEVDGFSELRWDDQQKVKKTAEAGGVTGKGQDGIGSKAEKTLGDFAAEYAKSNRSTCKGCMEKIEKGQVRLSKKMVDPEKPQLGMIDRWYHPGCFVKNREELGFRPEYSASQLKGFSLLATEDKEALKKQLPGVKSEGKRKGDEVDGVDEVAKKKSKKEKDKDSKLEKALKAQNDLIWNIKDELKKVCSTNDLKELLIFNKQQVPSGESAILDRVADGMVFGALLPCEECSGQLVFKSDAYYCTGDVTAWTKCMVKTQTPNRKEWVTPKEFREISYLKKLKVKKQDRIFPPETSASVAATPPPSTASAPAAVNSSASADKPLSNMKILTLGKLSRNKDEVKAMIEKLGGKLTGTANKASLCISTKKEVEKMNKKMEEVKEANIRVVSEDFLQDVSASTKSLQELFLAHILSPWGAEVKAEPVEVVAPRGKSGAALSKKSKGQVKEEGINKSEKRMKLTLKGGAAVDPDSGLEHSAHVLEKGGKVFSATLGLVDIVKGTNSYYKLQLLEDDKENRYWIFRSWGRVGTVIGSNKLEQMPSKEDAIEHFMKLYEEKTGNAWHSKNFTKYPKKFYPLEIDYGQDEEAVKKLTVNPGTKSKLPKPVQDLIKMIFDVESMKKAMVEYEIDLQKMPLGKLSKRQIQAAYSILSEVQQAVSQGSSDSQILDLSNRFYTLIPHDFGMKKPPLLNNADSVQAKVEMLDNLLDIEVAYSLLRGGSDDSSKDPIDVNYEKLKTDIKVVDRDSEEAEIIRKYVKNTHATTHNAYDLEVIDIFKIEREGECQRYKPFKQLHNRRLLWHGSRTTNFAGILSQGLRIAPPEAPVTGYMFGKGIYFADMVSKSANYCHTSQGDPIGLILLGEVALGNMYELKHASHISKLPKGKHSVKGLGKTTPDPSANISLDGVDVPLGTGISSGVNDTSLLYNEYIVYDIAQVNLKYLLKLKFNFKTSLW
UniProt P30101, whole entry, looked up: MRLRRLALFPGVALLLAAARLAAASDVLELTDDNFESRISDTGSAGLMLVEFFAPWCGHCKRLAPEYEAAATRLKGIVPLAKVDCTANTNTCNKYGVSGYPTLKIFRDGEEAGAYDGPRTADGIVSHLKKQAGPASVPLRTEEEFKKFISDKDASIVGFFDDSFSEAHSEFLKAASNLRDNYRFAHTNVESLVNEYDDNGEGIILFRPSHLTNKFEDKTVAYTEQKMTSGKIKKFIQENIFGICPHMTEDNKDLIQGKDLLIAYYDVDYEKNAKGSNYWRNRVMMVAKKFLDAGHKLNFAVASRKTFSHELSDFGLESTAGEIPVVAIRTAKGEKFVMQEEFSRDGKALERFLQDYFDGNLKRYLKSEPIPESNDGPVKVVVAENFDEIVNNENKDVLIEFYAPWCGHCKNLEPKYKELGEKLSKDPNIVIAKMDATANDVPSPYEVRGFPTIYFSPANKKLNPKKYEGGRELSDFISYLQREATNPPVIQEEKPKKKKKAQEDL
UniProt Q86SE9: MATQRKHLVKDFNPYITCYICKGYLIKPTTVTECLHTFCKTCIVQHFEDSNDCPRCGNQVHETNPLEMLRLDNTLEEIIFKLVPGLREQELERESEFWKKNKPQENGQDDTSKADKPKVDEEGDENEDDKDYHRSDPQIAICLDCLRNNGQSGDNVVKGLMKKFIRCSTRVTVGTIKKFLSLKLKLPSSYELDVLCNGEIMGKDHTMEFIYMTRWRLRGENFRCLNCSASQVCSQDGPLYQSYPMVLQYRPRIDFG
UniProt O00151: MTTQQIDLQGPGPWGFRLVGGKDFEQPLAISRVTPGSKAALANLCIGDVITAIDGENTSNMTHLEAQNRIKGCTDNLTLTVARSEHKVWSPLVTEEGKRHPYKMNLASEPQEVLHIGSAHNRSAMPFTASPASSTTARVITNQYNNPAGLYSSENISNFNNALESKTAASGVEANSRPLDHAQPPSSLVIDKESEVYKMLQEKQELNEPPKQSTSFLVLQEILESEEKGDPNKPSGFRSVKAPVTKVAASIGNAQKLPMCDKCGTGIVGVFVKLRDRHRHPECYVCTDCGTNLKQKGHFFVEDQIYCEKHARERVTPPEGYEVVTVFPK
UniProt Q29RF7: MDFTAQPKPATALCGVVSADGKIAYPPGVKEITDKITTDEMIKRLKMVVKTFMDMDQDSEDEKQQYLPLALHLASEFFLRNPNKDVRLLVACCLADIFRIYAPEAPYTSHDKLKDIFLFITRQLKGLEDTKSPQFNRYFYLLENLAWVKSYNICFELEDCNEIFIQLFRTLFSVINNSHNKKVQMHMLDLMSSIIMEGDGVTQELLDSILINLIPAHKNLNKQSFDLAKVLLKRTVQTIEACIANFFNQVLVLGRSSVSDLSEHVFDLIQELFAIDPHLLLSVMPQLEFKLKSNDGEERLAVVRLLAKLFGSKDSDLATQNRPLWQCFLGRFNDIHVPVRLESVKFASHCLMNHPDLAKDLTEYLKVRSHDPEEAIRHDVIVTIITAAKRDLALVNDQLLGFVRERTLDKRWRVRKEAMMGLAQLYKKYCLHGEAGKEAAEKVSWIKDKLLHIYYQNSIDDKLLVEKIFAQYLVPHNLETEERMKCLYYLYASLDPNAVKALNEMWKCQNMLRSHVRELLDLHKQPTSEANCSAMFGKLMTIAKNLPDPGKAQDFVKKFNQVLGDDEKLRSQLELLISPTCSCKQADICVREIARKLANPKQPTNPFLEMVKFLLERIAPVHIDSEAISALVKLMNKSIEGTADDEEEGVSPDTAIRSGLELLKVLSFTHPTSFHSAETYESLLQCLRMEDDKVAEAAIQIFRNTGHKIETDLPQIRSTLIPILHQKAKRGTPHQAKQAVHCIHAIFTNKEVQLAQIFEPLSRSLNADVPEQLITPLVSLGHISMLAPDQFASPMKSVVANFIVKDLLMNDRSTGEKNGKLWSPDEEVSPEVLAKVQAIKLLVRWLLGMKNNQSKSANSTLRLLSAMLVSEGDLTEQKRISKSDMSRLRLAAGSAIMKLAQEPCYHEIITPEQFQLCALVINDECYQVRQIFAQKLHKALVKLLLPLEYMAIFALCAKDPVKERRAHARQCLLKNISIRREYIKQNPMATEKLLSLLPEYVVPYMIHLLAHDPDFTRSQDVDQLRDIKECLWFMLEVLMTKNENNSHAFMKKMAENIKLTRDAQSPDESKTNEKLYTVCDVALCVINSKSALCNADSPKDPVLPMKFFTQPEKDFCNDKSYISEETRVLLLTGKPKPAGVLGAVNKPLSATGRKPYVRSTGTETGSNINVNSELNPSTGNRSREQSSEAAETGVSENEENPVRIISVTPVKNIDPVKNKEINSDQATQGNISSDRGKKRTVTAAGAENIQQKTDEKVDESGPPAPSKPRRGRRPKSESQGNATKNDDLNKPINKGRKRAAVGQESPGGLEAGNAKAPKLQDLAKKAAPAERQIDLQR
UniProt Q96JY6: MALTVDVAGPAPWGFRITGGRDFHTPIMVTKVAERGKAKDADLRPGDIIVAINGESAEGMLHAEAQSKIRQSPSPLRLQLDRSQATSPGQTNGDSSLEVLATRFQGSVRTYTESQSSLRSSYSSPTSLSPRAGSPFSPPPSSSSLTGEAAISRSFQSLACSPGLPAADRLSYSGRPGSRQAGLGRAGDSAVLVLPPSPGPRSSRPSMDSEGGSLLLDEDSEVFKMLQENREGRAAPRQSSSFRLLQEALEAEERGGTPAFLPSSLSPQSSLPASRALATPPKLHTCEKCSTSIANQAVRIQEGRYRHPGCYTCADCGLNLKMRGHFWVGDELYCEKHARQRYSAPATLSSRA
UniProt Q16822, whole entry, looked up: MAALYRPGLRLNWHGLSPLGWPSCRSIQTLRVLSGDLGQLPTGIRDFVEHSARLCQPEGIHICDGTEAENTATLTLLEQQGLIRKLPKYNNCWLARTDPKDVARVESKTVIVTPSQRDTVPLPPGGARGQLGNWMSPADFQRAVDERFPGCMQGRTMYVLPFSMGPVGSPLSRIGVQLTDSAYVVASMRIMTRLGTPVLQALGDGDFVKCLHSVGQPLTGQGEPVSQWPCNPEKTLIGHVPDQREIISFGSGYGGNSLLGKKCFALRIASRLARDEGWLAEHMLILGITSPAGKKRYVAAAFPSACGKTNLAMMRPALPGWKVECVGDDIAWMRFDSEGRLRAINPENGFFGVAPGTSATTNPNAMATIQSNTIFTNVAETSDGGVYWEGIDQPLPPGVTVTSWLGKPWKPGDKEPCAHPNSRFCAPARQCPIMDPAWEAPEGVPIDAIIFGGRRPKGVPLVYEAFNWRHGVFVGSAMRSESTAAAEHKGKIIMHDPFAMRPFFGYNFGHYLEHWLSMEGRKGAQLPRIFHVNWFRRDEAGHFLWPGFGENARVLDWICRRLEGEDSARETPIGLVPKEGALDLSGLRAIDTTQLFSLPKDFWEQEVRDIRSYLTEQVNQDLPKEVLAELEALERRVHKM
UniProt Q15365, whole entry, looked up: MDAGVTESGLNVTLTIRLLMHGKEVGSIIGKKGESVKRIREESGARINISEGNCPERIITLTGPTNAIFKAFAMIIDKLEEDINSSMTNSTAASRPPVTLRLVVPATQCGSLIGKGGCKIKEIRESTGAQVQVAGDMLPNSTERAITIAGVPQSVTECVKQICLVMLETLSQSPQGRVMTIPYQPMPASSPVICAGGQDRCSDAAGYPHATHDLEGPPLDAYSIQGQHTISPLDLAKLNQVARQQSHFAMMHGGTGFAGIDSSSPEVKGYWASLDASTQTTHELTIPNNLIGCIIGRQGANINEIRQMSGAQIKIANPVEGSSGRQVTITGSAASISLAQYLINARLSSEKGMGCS
UniProt Q8N3A8: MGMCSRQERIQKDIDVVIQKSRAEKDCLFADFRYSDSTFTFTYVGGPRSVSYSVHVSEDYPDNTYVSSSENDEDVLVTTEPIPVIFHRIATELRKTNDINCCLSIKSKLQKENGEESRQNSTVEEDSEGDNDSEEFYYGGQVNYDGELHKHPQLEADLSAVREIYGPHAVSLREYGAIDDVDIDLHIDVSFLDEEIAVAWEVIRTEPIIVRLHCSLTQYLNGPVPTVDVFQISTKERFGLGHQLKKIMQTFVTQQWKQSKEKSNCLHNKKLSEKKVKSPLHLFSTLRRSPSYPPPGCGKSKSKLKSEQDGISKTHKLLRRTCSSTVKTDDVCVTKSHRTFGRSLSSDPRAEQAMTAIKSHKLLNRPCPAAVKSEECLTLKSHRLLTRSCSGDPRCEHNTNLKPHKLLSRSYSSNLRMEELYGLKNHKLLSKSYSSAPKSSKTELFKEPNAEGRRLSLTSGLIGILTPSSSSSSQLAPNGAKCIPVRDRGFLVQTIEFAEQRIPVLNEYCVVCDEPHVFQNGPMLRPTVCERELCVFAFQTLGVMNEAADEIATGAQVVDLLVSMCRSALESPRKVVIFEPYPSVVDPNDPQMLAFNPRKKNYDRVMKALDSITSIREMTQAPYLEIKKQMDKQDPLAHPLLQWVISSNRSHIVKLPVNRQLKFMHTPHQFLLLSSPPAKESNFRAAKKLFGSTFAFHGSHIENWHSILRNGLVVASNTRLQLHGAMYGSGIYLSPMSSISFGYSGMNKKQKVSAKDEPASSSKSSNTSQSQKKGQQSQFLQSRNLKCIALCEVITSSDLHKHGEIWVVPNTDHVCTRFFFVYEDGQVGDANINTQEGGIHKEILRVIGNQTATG

Compound: CC1Cc2ccccc2N1C(=O)C1CCCN(C1)C(=O)CCl (mixture of isomers) [TRIM25 ligand 11 (diastereomer mixture)]
Assay: probe-labelled cysteine peptide fold change vs DMSO (competition) (log2 fold change); higher = less target engagement (more negative = stronger competition)
Conditions: THP-1, incubation time: 4 h
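Note: competitive chemoproteomic profiling in live THP-1 cells with an iodoacetamide desthiobiotin (IA-DTB) probe, comparing probe-labelled peptide intensities in compound-treated cells against DMSO-treated controls.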

Target | probe-labelled cysteine peptide fold change (10 µM) | probe-labelled cysteine peptide fold change (50 µM)
PASK_Q96RG2_759+761_ELFFSDQTDQTSSNCSCATSELR (UniProt Q96RG2) | 0.0516 | 0.0688
PDCD6IP_Q8WUM4_512_ECYQSHR (UniProt Q8WUM4) | 0.0978 | -0.0569
PARP1_P09874_295+298_VADGMVFGALLPCEECSGQLVFK (UniProt P09874) | -0.398 | 0.102
PDIA3_P30101_244_KFIQENIFGICPHMTEDNK (UniProt P30101) | -0.0149 | -0.195
PDCD6IP_Q8WUM4_40_FIQQTYPSGGEEQAQYCR (UniProt Q8WUM4) | 0.0813 | -0.253
PDK3_Q15120_191_HIGSIDPTCNVADVVK (UniProt Q15120) | -0.0471 | -0.122
PCGF5_Q86SE9_42_TCIVQHFEDSNDCPR (UniProt Q86SE9) | 0.0292 | -0.0616
PDLIM1_O00151_307_GHFFVEDQIYCEK (UniProt O00151) | 0.0336 | -0.0596
PDCD6IP_Q8WUM4_250_HCIMQANAEYHQSILAK (UniProt Q8WUM4) | 0.128 | -0.0702
PDS5A_Q29RF7_327_DSDLATQNRPLWQCFLGR (UniProt Q29RF7) | -0.0247 | 0.153
PCM1_Q15154_1717_KIEATGVIQSCAK (UniProt Q15154) | -0.0999 | -0.201
PCM1_Q15154_1616_EHMDEVCSSQLLTSVR (UniProt Q15154) | -0.0625 | 0.111
PCYT1A_P49585_5_MDAQCSAK (UniProt P49585) | -0.0266 | -0.206
PDCD6IP_Q8WUM4_691_CSDIVFAR (UniProt Q8WUM4) | -0.146 | 0.0707
PDS5A_Q29RF7_92_LLVACCLADIFR (UniProt Q29RF7) | 0.0773 | 0.399
PDS5A_Q29RF7_589_QADICVR (UniProt Q29RF7) | -0.0431 | 0.109
PDIA6_Q15084_291+297_TCEEHQLCVVAVLPHILDTGAAGR (UniProt Q15084) | 0.0199 | 0.0826
PCCB_P05166_448_HLCGDTNYAWPTAEIAVMGAK (UniProt P05166) | 0.0602 | 0.0486
PDCD11_Q14690_510_VLLCDPEAK (UniProt Q14690) | -0.0514 | -0.00699
PDLIM2_Q96JY6_310_YRHPGCYTCADCGLNLK (UniProt Q96JY6) | -0.081 | -0.00377

Target | probe-labelled cysteine peptide fold change (10 µM) | probe-labelled cysteine peptide fold change (50 µM)
PDCD11_Q14690_1062_SIKPTHVVVTLEDGIIGCIHASHILDDVPEGTSPTTK (UniProt Q14690) | 0.0843 | -0.025
PDSS2_Q86YH6_71_CLLSDELSNIAMQVR (UniProt Q86YH6) | -0.0743 | -0.206
PCK2_Q16822_92_YNNCWLAR (UniProt Q16822) | -0.0883 | -0.0335
PDS5A_Q29RF7_532_QPTSEANCSAMFGK (UniProt Q29RF7) | -0.0654 | -0.298
PCBP1_Q15365_293_GYWASLDASTQTTHELTIPNNLIGCIIGR (UniProt Q15365) | -0.0964 | -0.174
PARP1_P09874_295_VADGMVFGALLPCEECSGQLVFK (UniProt P09874) | -0.195 | 0.0831
PDHB_P11177_263_EGVECEVINMR (UniProt P11177) | -0.0245 | -0.125
PDCD11_Q14690_694_VLCLSQSEGR (UniProt Q14690) | -0.0798 | 0.156
PDCD11_Q14690_535_LPVITCYADAKPGLQTHGFIIR (UniProt Q14690) | 0.145 | 0.136
PDS5A_Q29RF7_14_PATALCGVVSADGK (UniProt Q29RF7) | -0.00487 | -0.069
PDCD11_Q14690_1754_ALECLPSK (UniProt Q14690) | -0.0211 | 0.0845
PDPR_Q8NCN5_85_FCAGILSTAR (UniProt Q8NCN5) | -0.107 | -0.0716
PDIA3_P30101_92_VDCTANTNTCNK (UniProt P30101) | 0.0305 | 0.111
PDLIM1_O00151_73_GCTDNLTLTVAR (UniProt O00151) | -0.0386 | -0.103
PARP8_Q8N3A8_27_DCLFADFR (UniProt Q8N3A8) | 0.00802 | -0.0304
PARP4_Q9UKK3_1293_LLDLSWTESCKPTATEPLFK (UniProt Q9UKK3) | -0.133 | -0.101
PCBP1_Q15365_109_LVVPATQCGSLIGK (UniProt Q15365) | -0.0226 | 0.00485
PCK2_Q16822_559_VLDWICR (UniProt Q16822) | -0.0267 | 0.0547
PDLIM7_Q9NR12_282+285_TPVCHQCHK (UniProt Q9NR12) | 0.0973 | 0.000168

Two entries from above in a different format:
Target	probe-labelled cysteine peptide fold change (10 µM)	probe-labelled cysteine peptide fold change (50 µM)
PCBP1_Q15365_109_LVVPATQCGSLIGK (UniProt Q15365)	-0.0226	0.00485
PCK2_Q16822_559_VLDWICR (UniProt Q16822)	-0.0267	0.0547
